Source: PubChem BioAssay AID504784 (Drosophila RNAi Screening Center, 2011)
In all, the deposit lists about 17,000 reagents; shown is an unselected part of those with a known target gene and a result. 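Each column is one replicate's B-score; the combined score over replicates was not deposited, so single values may mislead.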

- Screen: 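Genome-wide knock-down for genes giving too much or too little stored lipid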 (primary screen)
- Cell system: Drosophila Kc167 embryonic cells
- Knock-down reagent: long dsRNA against Drosophila genes, about 250 ng dsRNA per well
- Duration: 4 days
- Treatment: cells fed 400 µM oleic acid bound to BSA
- Detection: 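Cells imaged and segmented; ratio of lipid droplet area to nuclear area, log-transformed, then normalised as a B-score over the screen; higher means more stored lipid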
- Scale: droplet/nuclear area B-score: higher = more stored lipid (overstorage)

target gene	dsRNA	droplet/nuclear area B-score, replicate 1	droplet/nuclear area B-score, replicate 2	droplet/nuclear area B-score, replicate 3
mfr	DRSC10543	1.55	1.87	
ATP8A	DRSC05421	0.431	1.02	
ATP8A	DRSC06643	0.722	0.837	
ATP8A	DRSC06644	-2.42	-0.587	
CG15695	DRSC15117	4.32	-0.0641	
nyo	DRSC15029	0.192	-0.617	
nyo	DRSC15030	-0.429	-0.718	
CG34345	DRSC02126	1.01	0.0896	
CG8569	DRSC07214	0.684	-0.0294	
upSET	DRSC11051	-0.43	-0.0958	-1.13
upSET	DRSC23289	3.23	4.32	
Mec2	DRSC20054	-0.167	1.18	
Mdr65	DRSC11220	0.00422	0.424	0.444
Stip1	DRSC00756	0.373	0.075	
Marc	DRSC06614	0.83	-1.09	
caly	DRSC07182	3.56	1.17	
CG10317	DRSC14229	0.421	-0.174	
CG4041	DRSC18339	1.06	1.53	
Dcp-1	DRSC04609	0.694	-0.634	
az2	DRSC07580	2.45	-0.236	
CG12857	DRSC06197	-0.0183	0.984	
SdhBL	DRSC20039	0.386	2.19	
Tsp97E	DRSC16019	-0.691		
Sec16	DRSC19788	0.773	1.85	5.33
Sec16	DRSC19858	-0.307	-0.107	0.12
CG34408	DRSC17733	1.62	0.403	-0.0346
CG34408	DRSC21926	-0.215	6.28	
CG34408	DRSC23056	-0.171	0.649	
pav	DRSC08730	1.17	-0.838	
CG4836	DRSC15659	0.0853	0.392	
CG6978	DRSC18409	1.26	-1.86	
CG13634	DRSC14635	-1.28	1.19	
PolZ1	DRSC06800	-0.0351	-2.12	
CG6650	DRSC10685	0.896	-2.42	-1.52
CG14744	DRSC06480	0.0568	-0.763	
CG13228	DRSC06348	1.09	2.62	
Boh1	DRSC14487	-1.01	0.344	
UGP	DRSC10411	-0.96	-0.82	
Ir41a	DRSC04730	-0.835	0.0457	
Ir41a	DRSC04875	-0.484	-0.0505	
VhaPPA1-2	DRSC16176	-0.061	-0.535	
CG42288	DRSC06381	0.045	0.965	
CG8460	DRSC03090	0.361	1.16	
ear	DRSC15675	1.05		
Gas8	DRSC22884	-1.41	0.768	
CG11145	DRSC06049	0.413	0.805	
CG32507	DRSC20421	-2.66	2.05	
CG8060	DRSC07064	0.112	0.0322	
RpS18	DRSC07540	1.33	1.25	
Gr93b	DRSC22063	0.415	0.0506	
Ance	DRSC01865	0.0737	0.108	
Kap-alpha3	DRSC16976	0.655	0.452	
CG6966	DRSC16156	-0.0212	-0.377	
Ten-m	DRSC11664	2.03	-0.752	
Ten-m	DRSC11882	-0.117	0.422	
Tim9a	DRSC19753	0.316	0.137	-1.13
ben	DRSC20310	-0.598	-0.276	1.21
ben	DRSC21261	0.0127	0.0208	
CG8065	DRSC10959	0.4	-1.63	
Su(var)3-7	DRSC16872	-0.216	-0.471	
CG34107	DRSC14554	-0.0111	-0.239	
CG17707	DRSC20650	0.37	-0.631	
CG18666	DRSC02694	0.0348	-1	
SIFaR	DRSC13467	-0.563	0.106	
SIFaR	DRSC14266	-0.199	0.626	
Sema5c	DRSC11279	-0.0955	-0.0801	
CG31270 (retired record)	DRSC22252	0.384	0.63	
COX5B	DRSC02115	-0.677	-2.01	
CG3494	DRSC04375	-1.78	0.128	
CG13114	DRSC02212	-0.0755	-0.908	
Cpr76Bc	DRSC11062	-0.402	-0.23	
ci	DRSC17172	0.803	0.276	
CG13135	DRSC02232	1.88	0.575	
Tbcb	DRSC06067	1.52	2.22	
CG8664	DRSC20116	-1.28	0.00715	
NANS	DRSC15743	-0.385	-0.401	
kek6	DRSC15299	-0.758	1.07	
Gr10a	DRSC18897	0.114	-0.00366	
Gr10a	DRSC22792	-0.61	-1.38	
CG12522	DRSC09088	-1.52	-0.775	
ms(2)35Ci	DRSC01460	1.22	-0.233	
CG4681	DRSC04481	-2.12	-0.371	
Sgsh	DRSC14771	0.372	-0.449	
CG15211	DRSC19657	0.0271	-0.838	-0.00928
CG33140	DRSC06030	0.209	1.07	
Or24a	DRSC00768	0.447	1.05	
bol	DRSC08964	1.33	-0.168	
bol	DRSC10444	-0.117	-0.408	
bol	DRSC11329	0.377	0.0827	
CG13299	DRSC09973	0.478	-1.14	
hoe2	DRSC00459	1.76	-0.00949	
CG43345	DRSC03164	-0.316	1.01	
glob2	DRSC12560	0.677	-0.0669	
Gr47b	DRSC05275	-0.548	-0.912	
inaF-A	DRSC19660	-0.101	-0.977	-0.443
CG2712	DRSC18589	-1.31		
Cpr67B	DRSC10373	-0.105	-1.82	
CG10694	DRSC14263	0.74	0.691	
CG8665	DRSC03098	-3.31	-1.95	
CG15344 (retired record)	DRSC18029	-0.952	0.46	
CG5902	DRSC15912	1.56	-1.45	
wge	DRSC15246	-1.83	0.201	
wge	DRSC15672	-0.0234	1.87	
Sfxn2	DRSC10718	3.95	1.55	
PNUTS	DRSC00638	-0.487	0.4	
PNUTS	DRSC22136	-0.775	-1.25	

Laid out differently: 5 of the entries above
{"target gene":"CG13299","dsRNA":"DRSC09973","droplet/nuclear area B-score, replicate 1":0.478,"droplet/nuclear area B-score, replicate 2":-1.14}
{"target gene":"hoe2","dsRNA":"DRSC00459","droplet/nuclear area B-score, replicate 1":1.76,"droplet/nuclear area B-score, replicate 2":-0.00949}
{"target gene":"CG43345","dsRNA":"DRSC03164","droplet/nuclear area B-score, replicate 1":-0.316,"droplet/nuclear area B-score, replicate 2":1.01}
{"target gene":"glob2","dsRNA":"DRSC12560","droplet/nuclear area B-score, replicate 1":0.677,"droplet/nuclear area B-score, replicate 2":-0.0669}
{"target gene":"Gr47b","dsRNA":"DRSC05275","droplet/nuclear area B-score, replicate 1":-0.548,"droplet/nuclear area B-score, replicate 2":-0.912}
